These are yes or no findings as the source states them, for the method shown. In cells and extracts the contact can be indirect. Some results given as binding are weak or reduced against the parent protein; the word gives no strength.
Molecular target: MyoD (mouse (endogenous in C2C12)) (UniProt P10085)
Experiment: co-IP; lysates of C2C12 cells differentiated for 1 d; Dynabeads Protein G coated with anti-Deltex2 or anti-MyoD antibody, lysate incubated overnight at 4°C, 3 washes; western blot

Sequences of proteins named here, by UniProt entry; tags and fusion partners are left off.
UniProt P10085: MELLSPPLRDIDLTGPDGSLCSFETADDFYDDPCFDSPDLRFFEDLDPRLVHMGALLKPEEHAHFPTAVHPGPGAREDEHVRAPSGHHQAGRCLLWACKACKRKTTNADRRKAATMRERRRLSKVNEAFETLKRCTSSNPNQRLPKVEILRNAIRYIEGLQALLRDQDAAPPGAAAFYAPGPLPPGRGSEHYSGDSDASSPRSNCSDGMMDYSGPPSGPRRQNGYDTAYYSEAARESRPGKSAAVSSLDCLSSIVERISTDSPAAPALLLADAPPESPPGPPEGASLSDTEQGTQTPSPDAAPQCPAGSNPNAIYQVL

binding: binds
B1: Deltex2 (protein, UniProt Q8R3P2-1 1-619)
chain: MAMAPSSSLPQVYPSHVVVAVWEWQDGLGIWHPYSATVCSFIEQHFVRQRGQHFGLGSLAHSIPLGQADPSLAPYIIDLPSWTQFRQNTGTMRSVRRHLFSQNSAPGQGIVWEWLGDDGSWVAYEARICDYLEQQVARGIQVVDLAPLGYNYTVNYATLTQTNKTSSFCRSVRRQVGPVYPVTSDIAVPRQMGLICFCQQCLHGSGTGPVSGRYRHSMTNLPAYPAPQAPHRTTTVSGAHQAFAPYNKPSLSGARSAPRLNTTNPWAAAPPVAGNQSLFHSSLSHLGPQLLPSGPSTSSGASASFPSGPSSSSPGSAPTTVPVQMPKASRVQQALAGMTSVLSAIGLPVCLSRAPRPTGPPASRPASKSHSSVKRLRKMSVKEGAPKPEPEQVIRKYTEELKVAPEEDCIICMEKLAVASGYSDMTDSKALGPMVVGRLTKCSHAFHLLCLLAMYCNGNKDGSLQCPSCKTIYGEKTGTQPWGKMEVFRFQMSLPGHEDCGTILIVYNIPHGIQGPEHPSPGKPFTARGFPRQCYLPDSPQGRKVLELLKVAWKRRLIFTVGTSSTTGETDTVVWNEIHHKTEMDRNVTGHGYPDPNYLQNVLAELAAQGVTEDCLEQQ
